Test results: the supplement of paper PMC11438910
The other results are listed elsewhere or left out. Most of these values are background signal.

Experiments:
Test in all cases: fluorescence intensity of antibody binding to polysaccharide-coupled beads; higher = stronger binding
[1] = molecular target: pneumococcal polysaccharide Pn35C
[2] = molecular target: pneumococcal polysaccharide Pn35F
[3] = molecular target: pneumococcal polysaccharide Pn36
[4] = molecular target: pneumococcal polysaccharide Pn37
[5] = molecular target: pneumococcal polysaccharide Pn38
[6] = molecular target: pneumococcal polysaccharide Pn39
[7] = molecular target: pneumococcal polysaccharide Pn4
[8] = molecular target: pneumococcal polysaccharide Pn40
[9] = molecular target: pneumococcal polysaccharide Pn41A
[10] = molecular target: pneumococcal polysaccharide Pn41F
[11] = molecular target: pneumococcal polysaccharide Pn42
[12] = molecular target: pneumococcal polysaccharide Pn43
[13] = antibody concentration 2337.65 ng/mL
[14] = antibody concentration 12500 ng/mL
[15] = antibody concentration 0.1 ng/mL
[16] = antibody concentration 0.534724 ng/mL
[17] = antibody concentration 2.8593 ng/mL
[18] = antibody concentration 15.2894 ng/mL
[19] = antibody concentration 81.7561 ng/mL
[20] = antibody concentration 437.17 ng/mL

B1: 4-99.1 (protein)
chain 1: QVQLQESGPGLVKPSETLSLTCAVSGDSISSGYFWGWIRQPPGKGLEYIGYISGESGNTYDNPSLKSRVTISKDTSKNQFSLNLRSVTAADTAVYYCARRTVYIGFDYWGQGVLVTVSS
chain 2: QAAPTQPPSVSGSPGQSVTISCTGTSSDIGYYNAVSWYQQHPGKAPKLMIYEVSKRPSGVSDRFSGSKSGTTASLTISGLQAEDEADYYCSSYAGTNTYIFGAGTRLTVL
[1]; [13]
  fluorescence intensity: 21.5 MFI
[1]; [14]
  fluorescence intensity: 28.5 MFI
[2]; [15]
  fluorescence intensity: 21 MFI
[2]; [16]
  fluorescence intensity: 19.5 MFI
[2]; [17]
  fluorescence intensity: 19.5 MFI
[2]; [18]
  fluorescence intensity: 19.2 MFI
[2]; [19]
  fluorescence intensity: 18.5 MFI
[2]; [20]
  fluorescence intensity: 20.2 MFI
[2]; [13]
  fluorescence intensity: 23.2 MFI
[2]; [14]
  fluorescence intensity: 28.5 MFI
[3]; [15]
  fluorescence intensity: 17 MFI
[3]; [16]
  fluorescence intensity: 17 MFI
[3]; [17]
  fluorescence intensity: 15 MFI
[3]; [18]
  fluorescence intensity: 16.5 MFI
[3]; [19]
  fluorescence intensity: 15.8 MFI
[3]; [20]
  fluorescence intensity: 17.5 MFI
[3]; [13]
  fluorescence intensity: 23 MFI
[3]; [14]
  fluorescence intensity: 157 MFI
[4]; [15]
  fluorescence intensity: 26.5 MFI
[4]; [16]
  fluorescence intensity: 26 MFI
[4]; [17]
  fluorescence intensity: 25.8 MFI
[4]; [18]
  fluorescence intensity: 26.5 MFI
[4]; [19]
  fluorescence intensity: 27 MFI
[4]; [20]
  fluorescence intensity: 30.5 MFI
[4]; [13]
  fluorescence intensity: 88.2 MFI
[4]; [14]
  fluorescence intensity: 672 MFI
[5]; [15]
  fluorescence intensity: 26 MFI
[5]; [16]
  fluorescence intensity: 25.8 MFI
[5]; [17]
  fluorescence intensity: 26.8 MFI
[5]; [18]
  fluorescence intensity: 26 MFI
[5]; [19]
  fluorescence intensity: 26 MFI
[5]; [20]
  fluorescence intensity: 27 MFI
[5]; [13]
  fluorescence intensity: 30.5 MFI
[5]; [14]
  fluorescence intensity: 50 MFI
[6]; [15]
  fluorescence intensity: 19 MFI
[6]; [16]
  fluorescence intensity: 19.2 MFI
[6]; [17]
  fluorescence intensity: 18 MFI
[6]; [18]
  fluorescence intensity: 18 MFI
[6]; [19]
  fluorescence intensity: 20.5 MFI
[6]; [20]
  fluorescence intensity: 18.8 MFI
[6]; [13]
  fluorescence intensity: 25 MFI
[6]; [14]
  fluorescence intensity: 80.8 MFI
[7]; [15]
  fluorescence intensity: 18 MFI
[7]; [16]
  fluorescence intensity: 18.5 MFI
[7]; [17]
  fluorescence intensity: 18.5 MFI
[7]; [18]
  fluorescence intensity: 19 MFI
[7]; [19]
  fluorescence intensity: 20.8 MFI
[7]; [20]
  fluorescence intensity: 23.2 MFI
[7]; [13]
  fluorescence intensity: 29.5 MFI
[7]; [14]
  fluorescence intensity: 39.8 MFI
[8]; [15]
  fluorescence intensity: 16.5 MFI
[8]; [16]
  fluorescence intensity: 15.5 MFI
[8]; [17]
  fluorescence intensity: 18 MFI
[8]; [18]
  fluorescence intensity: 17 MFI
[8]; [19]
  fluorescence intensity: 16 MFI
[8]; [20]
  fluorescence intensity: 18 MFI
[8]; [13]
  fluorescence intensity: 28 MFI
[8]; [14]
  fluorescence intensity: 234 MFI
[9]; [15]
  fluorescence intensity: 24 MFI
[9]; [16]
  fluorescence intensity: 24 MFI
[9]; [17]
  fluorescence intensity: 23.5 MFI
[9]; [18]
  fluorescence intensity: 23.5 MFI
[9]; [19]
  fluorescence intensity: 24.5 MFI
[9]; [20]
  fluorescence intensity: 24.5 MFI
[9]; [13]
  fluorescence intensity: 25 MFI
[9]; [14]
  fluorescence intensity: 31 MFI
[10]; [15]
  fluorescence intensity: 13 MFI
[10]; [16]
  fluorescence intensity: 12.5 MFI
[10]; [17]
  fluorescence intensity: 11.5 MFI
[10]; [18]
  fluorescence intensity: 14.5 MFI
[10]; [19]
  fluorescence intensity: 13 MFI
[10]; [20]
  fluorescence intensity: 13.5 MFI
[10]; [13]
  fluorescence intensity: 17 MFI
[10]; [14]
  fluorescence intensity: 29 MFI
[11]; [15]
  fluorescence intensity: 12 MFI
[11]; [16]
  fluorescence intensity: 11.5 MFI
[11]; [17]
  fluorescence intensity: 11.2 MFI
[11]; [18]
  fluorescence intensity: 11.5 MFI
[11]; [19]
  fluorescence intensity: 12 MFI
[11]; [20]
  fluorescence intensity: 12.5 MFI
[11]; [13]
  fluorescence intensity: 15 MFI
[11]; [14]
  fluorescence intensity: 78.2 MFI
[12]; [15]
  fluorescence intensity: 16 MFI
[12]; [16]
  fluorescence intensity: 15 MFI
[12]; [17]
  fluorescence intensity: 14.5 MFI
[12]; [18]
  fluorescence intensity: 15.5 MFI
[12]; [19]
  fluorescence intensity: 18 MFI
[12]; [20]
  fluorescence intensity: 18.5 MFI
[12]; [13]
  fluorescence intensity: 46.5 MFI
[12]; [14]
  fluorescence intensity: 516 MFI
